Reference: patent publication US6753182B1, “Cryopreservation of plant cells” (Phyton, Inc., priority 1995, dated 2004)
Some entries share one result that the patent states for a list of compounds.

Key:
[1] = tested on: Taxus species cell line KS1A; assay: Post-thaw viability of cryopreserved Taxus cell line KS1A (FDA staining); type: cell-based; details: cryoprotectants ethylene glycol/sorbitol/pectin; immediately after thawing
Experimental: (§1) Cells of Taxus suspension cultures (KS1A) were harvested and precultured with various osmotic agents in the medium. Osmotic agents tested include trehalose, proline, sorbitol (0.15 M-0.8 M), sucrose (2-20%) and mannitol (0.16 M). Viability was evaluated for each cell suspension at the end of the preculture period and immediately after thawing. Regrowth was evaluated after post-thaw osmotic adjustment. The vitrification solutions used were ethylene glycol/sorbitol/pectin and ethylene glycol/sorbitol at 40/30 weight percent in culture medium.
Six to seven day cell suspensions of Taxus species cell line KS1A were pretreated with 3% mannitol for three days at room temperature. Loaded cells were acclimated to the cold by incubating the flasks at 4° C. for 3 hours. Cold acclimated cells were transferred to 4 ml cryovials and cold vitrification solution was added to each and mixed. After vitrification at 4° C. for three minutes, cells were frozen liquid nitrogen immersion. Vials were maintained in liquid nitrogen for at least 10 minutes.
Cryopreserved cells were thawed by transferring vials from liquid nitrogen and agitated in a 40° C. water bath for 1-2 minutes. Post-thaw viability was determined by FDA staining assay.

[2] = tested on: Taxus suspension cultures (KS1A); assay: Viability of Taxus KS1A cells at end of preculture period; type: cell-based, Taxus species; details: end of preculture with osmotic agent (sorbitol 0.15 M-0.8 M, sucrose 2%-20%, mannitol 0.16 M)
Experimental: as §1

In the case of `OC[C@H]1O[C@H](O[C@H]2O[C@H](CO)[C@@H](O)[C@H](O)[C@H]2O)[C@H](O)[C@@H](O)[C@@H]1O` [Trehalose, trehalose], the “Recovery Viability” value [1] is reported as <15% and the Viability [2] is reported as 50-95%.
